Laboratory results from US20260098096A1.
No constants are given. Whether binding was seen depends on the method and setting. Some entries that bind do so weakly or less than the wild type.

Protein sequences, listed by entry. Tags and fused reporters are not part of them. Lines headed by an entry give the natural chain unless they say otherwise; changes in a name come on top.
UniProt P51685: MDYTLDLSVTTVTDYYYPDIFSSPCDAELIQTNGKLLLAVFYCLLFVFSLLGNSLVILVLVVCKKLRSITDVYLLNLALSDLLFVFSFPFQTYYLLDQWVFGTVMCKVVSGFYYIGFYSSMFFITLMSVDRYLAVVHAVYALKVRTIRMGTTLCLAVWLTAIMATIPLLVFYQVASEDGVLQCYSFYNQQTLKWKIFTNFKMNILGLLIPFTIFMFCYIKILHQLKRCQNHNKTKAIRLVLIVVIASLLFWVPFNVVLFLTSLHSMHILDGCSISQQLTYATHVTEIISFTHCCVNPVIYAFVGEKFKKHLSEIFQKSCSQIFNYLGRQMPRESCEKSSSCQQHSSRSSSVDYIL

Molecular target: Human CCR8 (human) (UniProt P51685)
Test: flow cytometry on hCCR8-L1.2 transfected cells

B1: Chimeric 2H8 (antibody, human IgG1, kappa, V domains shown)
VH: EVQLQQSGPELVKPGASVKMSCKASGYTFTDYNMHWVKQSHGKSLEWIGYVNPNNGGTSYNQKFKGKATLTVNKSSSTAYMELRSLTSEDSAVYYCARWVLRRNFAYWGQGTLVTVSA
VL: DIVMTQSHKFMSTSVGDRVSITCKASQDVNTAVAWYQQKPGQSPKLLIYWASTRHTGVPDRFTGSGSGTDYTLTISSVQAEDLALYYCQQHYRNPYTFGGGTKLEIKR
For B1, the binding was “binds”.
